Data source: PubChem BioAssay AID1259405 (NCATS, 2018)
Screen: 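Silenced genes that increase secreted GFP made by CHO cells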 (primary screen). System: Chinese hamster CHO-K1 ovary cells with stable secreted eGFP expression. Reagent: single siRNA against mouse genes, 0.8 pmol siRNA per well (2 µl of 400 nM stock). Duration: 3 days. Detection: 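Percent of the per-plate non-targeting control median for intracellular GFP per well by laser scanning cytometry and for cell viability by ATP luminescence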. Direction: GFP, % of control: higher = more GFP per well, higher productivity; viability (ATP), % of control: higher = more viable cells (more ATP). Call rule: 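a knock-down is called active if GFP reaches 120% or more of non-targeting control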.
In all, the deposit lists about 50,000 reagents; shown is a random part of them. Of all reagents, about 4,000 (8%) were called active. 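Mouse siRNA library applied to hamster cells; one well for each siRNA.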 A number with no mark means an inactive call. The numbers tell different reagents against one gene apart. No sequences are given here.

gene	siRNA no.	GFP, % of control	viability (ATP), % of control
Wfdc15a (WAP four-disulfide core domain 15A)	1	62.4	55.3
Wfdc15a (WAP four-disulfide core domain 15A)	2	98.6	50.7
Wfdc15a (WAP four-disulfide core domain 15A)	3	94.7	102
Txk (TXK tyrosine kinase)	1	88	76.9
Txk (TXK tyrosine kinase)	2	93.4	82.6
Txk (TXK tyrosine kinase)	3	64.6	65.7
Arap2 (ArfGAP with RhoGAP domain, ankyrin repeat and PH domain 2)	1	101	102
Arap2 (ArfGAP with RhoGAP domain, ankyrin repeat and PH domain 2)	2	143 (active)	114
Arap2 (ArfGAP with RhoGAP domain, ankyrin repeat and PH domain 2)	3	57.8	42.3
Pdcl2 (phosducin-like 2)	1	75.7	58.2
Pdcl2 (phosducin-like 2)	2	84.5	79.2
Pdcl2 (phosducin-like 2)	3	85.8	74.3
Mfsd6 (major facilitator superfamily domain containing 6)	1	117	82.1
Mfsd6 (major facilitator superfamily domain containing 6)	2	70.1	52.2
Mfsd6 (major facilitator superfamily domain containing 6)	3	71.4	81.4
Eml3 (echinoderm microtubule associated protein like 3)	1	65.9	65.5
Eml3 (echinoderm microtubule associated protein like 3)	2	65.9	78.6
Eml3 (echinoderm microtubule associated protein like 3)	3	84.4	100
Rpl7a (ribosomal protein L7A)	1	86.4	117
Rpl7a (ribosomal protein L7A)	2	111	88.9
Rpl7a (ribosomal protein L7A)	3	104	81.8
Wdr20rt (WD repeat domain 20, retrogene)	1	39.5	41.6
Wdr20rt (WD repeat domain 20, retrogene)	2	85.3	77.3
Wdr20rt (WD repeat domain 20, retrogene)	3	74.1	72
Sec14l1 (SEC14-like lipid binding 1)	1	99.2	92.7
Sec14l1 (SEC14-like lipid binding 1)	2	44.9	73.3
Sec14l1 (SEC14-like lipid binding 1)	3	51.1	81.9
Ubxn11 (UBX domain protein 11)	1	60.3	58.4
Ubxn11 (UBX domain protein 11)	2	78.3	82.6
Ubxn11 (UBX domain protein 11)	3	83	68.5
Ptch1 (patched 1)	1	76.8	73.7
Ptch1 (patched 1)	2	63.2	79
Ptch1 (patched 1)	3	74.9	87.6
Cntd1 (cyclin N-terminal domain containing 1)	1	86.5	95.3
Cntd1 (cyclin N-terminal domain containing 1)	2	80.9	51.6
Cntd1 (cyclin N-terminal domain containing 1)	3	78.2	81.1
Siglecf (sialic acid binding Ig-like lectin F)	1	63.2	53.9
Siglecf (sialic acid binding Ig-like lectin F)	2	105	73.5

No new results follow: entries from further up.
gene	siRNA no.	GFP, % of control	viability (ATP), % of control
Sec14l1 (SEC14-like lipid binding 1)	1	99.2	92.7
Sec14l1 (SEC14-like lipid binding 1)	2	44.9	73.3
Sec14l1 (SEC14-like lipid binding 1)	3	51.1	81.9
Ubxn11 (UBX domain protein 11)	1	60.3	58.4
Ubxn11 (UBX domain protein 11)	2	78.3	82.6
Ubxn11 (UBX domain protein 11)	3	83	68.5
Ptch1 (patched 1)	1	76.8	73.7

The listing continues:
gene	siRNA no.	GFP, % of control	viability (ATP), % of control
Pgd (phosphogluconate dehydrogenase)	1	97.1	83.4
Pgd (phosphogluconate dehydrogenase)	2	96.1	71.8
Pgd (phosphogluconate dehydrogenase)	3	88	63.9
Tmprss13 (transmembrane protease, serine 13)	1	64.8	52.6
Tmprss13 (transmembrane protease, serine 13)	2	32.5	52.9
Tmprss13 (transmembrane protease, serine 13)	3	33.6	51
Or5g26 (olfactory receptor family 5 subfamily G member 26)	1	55.5	75.4
Or5g26 (olfactory receptor family 5 subfamily G member 26)	2	65.3	67.1
Or5g26 (olfactory receptor family 5 subfamily G member 26)	3	79.6	84.2
Chmp2a (charged multivesicular body protein 2A)	1	24	15.6
Chmp2a (charged multivesicular body protein 2A)	2	160 (active)	133
Chmp2a (charged multivesicular body protein 2A)	3	55	56.9
Anapc2 (anaphase promoting complex subunit 2)	1	41.3	49.2
Anapc2 (anaphase promoting complex subunit 2)	2	84.7	101
Anapc2 (anaphase promoting complex subunit 2)	3	93.4	138
Or8c15 (olfactory receptor family 8 subfamily C member 15)	1	78.3	85.4
Or8c15 (olfactory receptor family 8 subfamily C member 15)	2	88.6	86.1
Or8c15 (olfactory receptor family 8 subfamily C member 15)	3	100	88.3
Or4e2 (olfactory receptor family 4 subfamily E member 2)	1	96.3	103
Or4e2 (olfactory receptor family 4 subfamily E member 2)	2	69.2	73.2
Or4e2 (olfactory receptor family 4 subfamily E member 2)	3	68.3	104
